A short description of this assay: qHTS Assay to Find Inhibitors of Chronic Active B-Cell Receptor Signaling. Particulars: ABC-DLBCL IkBa-CBG/CBR reporter, luminescence ratio (green luciferase fused to IkBa over red control in TMD8 lymphoma cells), 4 h. The essentials:
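Compounds up to 46 uM were incubated four hours with TMD8 cells whose green CBG68 luciferase is fused to IkappaBalpha; red CBR luminescence normalised the signal, and concentration-effect curves were fitted to fusion, red and ratio data.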

[1] abbreviates: measured here: CBR red luminescence, cell number.
Where [2] appears, read: measured here: IkBa-CBG green luminescence.

Results on 61 molecules are retold here after PubChem BioAssay AID493014 (National Center for Advancing Translational Sciences (NCATS), 2011).

This is one part of the list. Further columns of the screen follow, without active or inactive calls. The list favours compounds with an active or inconclusive main result. The note in brackets gives the kind of curve behind each potency; many fits are weak.

The term AC50 denotes the concentration giving half of the maximal activity seen.

For the molecule `Cc1nn(-c2ccccc2)c(Cl)c1CN(C(=O)CCl)c1cccc2ccccc12`, the AC50 by setting is: under setting [1], 23.1 µM [falling, partial curve, poor fit]; under setting [2], 11.6 µM [rising, partial curve, poor fit].

On to `CC1CCCCN1C(=O)COC(=O)c1n[nH]c2ccccc12` (stereo unspecified), for which the AC50 under setting [1] was 18.4 µM [falling, single point].

As for `COc1ccccc1-c1nnc(SCC(=O)NCc2c(C)c(Cl)cc(C(C)C)c2O)o1`, the AC50 under setting [1] is 20.6 µM [falling, single point].

With `NS(=O)(=O)c1cccc(NC(=O)COC(=O)/C(=C/c2cccs2)c2cccs2)c1`, the AC50 under setting [1] is 25.9 µM [falling, partial curve].

Turning to `Cc1cccn2c(N)c(-c3ccccc3)nc12`, the concentration at half-maximal activity (AC50) under setting [1] was 28.2 µM [falling, partial curve, poor fit].

`O=S(=O)(c1ccc2nc(Nc3ccccc3)ccc2c1)N1CCCCC1`: the AC50 under setting [2] is 12.6 µM [rising, partial curve, poor fit].

For the molecule `CCOc1ccc(CNC(=O)C(CC)n2nc(C)n3c(cc4occc43)c2=O)cc1OC` (stereo unspecified), the AC50 under setting [1] is 29.1 µM [falling, single point].

Regarding `COCCNc1c2c(c(C#N)c3nc4ccccc4n13)CCCC2`, the AC50 under setting [2] was 15.8 µM [rising, partial curve, poor fit].

Regarding `COCCCn1c(=O)/c(=C\c2cccc(OC)c2OC)s/c1=C(/C#N)C(=O)Nc1ccc(C(=O)O)cc1`, the AC50 reads like this: under setting [1], 20 µM [falling, partial curve, poor fit]; under setting [2], 11.2 µM [rising, single point].

With `CNC(=O)c1[nH]cnc1C(=O)Nc1ccccc1C`, the AC50 is 7.31 µM [falling, partial curve] under setting [1] and 2.59 µM [rising, full curve, poor fit] under setting [2].

`CN(CC(=O)Nc1ccc(F)c(F)c1)S(=O)(=O)c1cccs1`: under setting [1], the AC50 was 3.98 µM [falling, partial curve, poor fit].

As to `O=C(CNS(=O)(=O)Cc1ccccc1)NCc1ccccc1`, the AC50 under setting [1] is 20 µM [falling, partial curve, poor fit].

`CC1OC(Nc2ccc(N=Nc3ccccc3)cc2)C(O)C(O)C1O` (stereo unspecified): the AC50 under setting [1] was 14.1 µM [falling, single point].

As for `CCCCOc1ccc(C(=O)Nc2ccc(N3CCN(C(C)=O)CC3)cc2)cc1`, the AC50 under setting [1] is 8.2 µM [falling, partial curve, poor fit].

As to `Cc1ccc2nc(SCC(=O)NCc3ccco3)[nH]c2c1`, the AC50 under setting [1] was 7.31 µM [rising, single point].

Consider `Cc1ccc(C)c2c1cc(C)c1nnc(SCC(=O)Nc3cccc(C(=O)O)c3)n12`, for which, under setting [1], the AC50 is 11.2 µM [rising, partial curve, poor fit].

Regarding `C=CC[C@@H](CC(=O)N(CCO)Cc1ccccc1)C(=O)NC[C@H](OC(=O)[C@@H](CC=C)CC(=O)OC(C)(C)C)c1ccccc1`, under setting [1], the AC50 is 16.4 µM [falling, single point].

Consider `COc1ccccc1Cc1noc(COc2cccc(C)c2C)n1`, for which the AC50 under setting [1] is 0.00731 µM [rising, full curve, poor fit].

As to `O=[N+]([O-])c1cc2c(cc1/C=N/Nc1nc(Nc3ccccc3)nc(N3CCCCC3)n1)OCO2`, under setting [1], the AC50 was 2.51 µM [falling, full curve, poor fit].

As to `O=C(CN1CCN(Cc2ccc(Cl)cc2)CC1)N/N=C/C=C/c1ccccc1[N+](=O)[O-]`, the AC50 under setting [1] is 20.6 µM [falling, partial curve, poor fit].

As to `Cc1ccc(C)c(NC(=O)CN(C)C(=O)c2ccc(-c3ccc(Cl)cc3)o2)c1`, the AC50 under setting [1] was 20.6 µM [rising, partial curve, poor fit].

For `O=C(C[C@@H]1C/C=C\C[C@H](NC(=O)OCC2c3ccccc3-c3ccccc32)C(=O)OC[C@H]2CCCN2C1=O)N[C@@H](CO)Cc1ccccc1`, the AC50 under setting [1] was 18.4 µM [falling, single point].

Turning to `O=C(CCCc1nc(-c2ccccc2)no1)NC1CCCC1`, the AC50 under setting [2] was 5.01 µM [rising, partial curve, poor fit].

For the molecule `Cc1cc(C)cc(NC(=S)NCc2cccnc2)c1`, under setting [1], the half-maximal activity concentration (AC50) is 18.4 µM [falling, single point].

In the case of `O=C1CSC(c2ccccc2[N+](=O)[O-])N1c1cccc(F)c1` (stereo unspecified), the AC50 under setting [1] is 35.5 µM [falling, single point].

In the case of `CCOc1ccc(/C=C2/SC(=O)NC2=S)cc1`, the AC50 under setting [1] was 20.6 µM [falling, single point].

As to `O=[N+]([O-])c1ccc(SCc2ccncc2)nc1`, the AC50 under setting [1] is 35.5 µM [rising, single point].

Take `COC(=O)Cc1ccc2sc(-c3ccccc3)nc2c1`: the AC50 under setting [1] was 14.6 µM [falling, single point].

For `COc1cc2c(cc1OC)-c1cc3ccc4c(c3c[n+]1CC2)OCO4`, the AC50 under setting [1] was 11.6 µM [rising, partial curve, poor fit].

Turning to `O=C(CCNS(=O)(=O)c1ccccc1C(F)(F)F)NCc1ccc2c(c1)OCO2`, the AC50 under setting [1] was 1.46 µM [falling, partial curve].

Regarding `O=C(Nc1ccccc1)C1CC(O)CN1S(=O)(=O)c1ccc([N+](=O)[O-])cc1` (stereo unspecified), the AC50 under setting [1] was 15.8 µM [rising, partial curve, poor fit].

For `CCN(CC(=O)NCc1cccs1)C(=O)/C=C/c1cccc(OC)c1OC`, the AC50 under setting [1] is 1.03 µM [rising, full curve, poor fit].

In the case of `Clc1ccc(SCCCCn2ccnc2)cc1`, the AC50 under setting [1] was 3.66 µM [falling, single point].

In the case of `c1ccc(-c2cc(N3CCCCC3)c3ccccc3n2)cc1`, under setting [1], the AC50 was 7.08 µM [rising, full curve, poor fit].

Consider `CCCCCNC(=O)c1ccccc1SC`, for which, under setting [1], the AC50 was 2.06 µM [falling, partial curve, poor fit].

Consider `COC(=O)c1c(NC(=O)c2nc3nc(C)cc(C(F)F)n3n2)sc2c1CCC2`, for which the AC50 under setting [1] was 8.91 µM [falling, partial curve, poor fit].

For the molecule `COc1ccc(OC)c(C(=O)COC(=O)c2ccccc2O)c1`, the AC50 under setting [1] was 35.5 µM [rising, single point].

Turning to `Cc1cnc(NC(=O)NCC2CCCC(CNC(=O)Nc3ncc(C)s3)C2)s1` (stereo unspecified), the AC50 under setting [1] is 10 µM [falling, partial curve].

Regarding `O=c1oc2ccccc2c(N2CCCCC2)c1CN1CCCC1`, the AC50 under setting [1] was 1.84 µM [falling, full curve].

Take `COP(=O)(OC)C(Nc1ccc(C)cc1)c1ccc([N+](=O)[O-])cc1` (stereo unspecified): the AC50 under setting [1] was 3.26 µM [falling, partial curve, poor fit].

As for `COc1ccc2[nH]c(C)c(CCNC(=S)Nc3cc(C)ccc3C)c2c1`, the AC50 under setting [1] was 0.461 µM [rising, full curve, poor fit].

With `CCOC(=O)C1=C(C)NC(SC)=C(C#N)C1CC(C)C` (stereo unspecified), the AC50 under setting [1] was 5.62 µM [falling, full curve].

`O=C(Nc1ncc([N+](=O)[O-])s1)c1ccccc1Br`: the concentration at half-maximal activity (AC50) under setting [1] is 10 µM [falling, partial curve, poor fit].

`CCN1CCCC1CNC(=O)c1cc2c(-c3cccc(OC)c3)nn(C)c2s1` (stereo unspecified): the AC50 under setting [1] is 6.51 µM [falling, single point].

For the molecule `Cc1ccc(C2CCN(C(=O)Nc3ccc(Cl)c(Cl)c3)C2)cc1` (stereo unspecified), under setting [1], the AC50 is 14.1 µM [falling, partial curve].

Take `CCNC(=S)N/N=C(\C)c1ccco1`: the AC50 under setting [2] is 35.5 µM [falling, single point].

With `CC(=O)N1CCc2cc(S(=O)(=O)CCC(=O)N3CCC(C)CC3)ccc21`, under setting [1], the AC50 is 12.6 µM [falling, partial curve, poor fit].

With `O=C(O)c1ccccc1CSc1nc2ccccc2o1`, the AC50 under setting [1] is 35.5 µM [falling, single point].

For `O=C(O)Cc1sc(-c2ccc(C(=O)O)cc2)nc1-c1ccccc1`, the AC50 under setting [1] is 14.1 µM [falling, partial curve, poor fit].

Consider `O=C(CSc1nc2ccccc2c(=O)[nH]1)Nc1ccccc1C(F)(F)F`, for which the half-maximal activity concentration (AC50) under setting [1] is 7.94 µM [falling, partial curve].

For `CC1CCc2[nH]c3ccc(C(=O)N(C)CC(=O)Nc4ccccc4Br)cc3c2C1` (stereo unspecified), the half-maximal activity concentration (AC50) reads like this: under setting [1], 1.64 µM [rising, partial curve]; under setting [2], 4.61 µM [rising, partial curve, poor fit].

For `O=C(Nc1ccc2nc3n(c(=O)c2c1)CCCCC3)c1cc([N+](=O)[O-])ccc1F`, the AC50 was 7.94 µM [falling, partial curve] under setting [1] and 6.31 µM [falling, partial curve, poor fit] under setting [2].

Turning to `CCOc1ccc(S(=O)(=O)/N=C(/Nc2ccc(C(C)=O)cc2)c2ccccc2)cc1`, under setting [1], the AC50 is 5.17 µM [rising, single point].

In the case of `N#Cc1ccccc1OCC(=O)NC1CCCCC1`, the AC50 under setting [1] was 8.2 µM [falling, partial curve, poor fit].

Take `COc1cccc(/C=N/Nc2nnc(C)n2N)c1O`: the AC50 under setting [1] was 35.5 µM [falling, single point].

Regarding `COc1ccc(NC(=O)CN2C(=O)COc3ccc(C)cc32)cc1`, the AC50 under setting [1] was 35.5 µM [rising, partial curve, poor fit].

Turning to `COC(=O)c1ccccc1NC(=O)CNC(=O)c1ccc(OC)c(OC)c1`, under setting [1], the AC50 was 0.631 µM [falling, full curve].

With `COc1ccc(CCN(C)c2ncnc3sccc23)cc1OC`, the AC50 under setting [1] was 6.31 µM [rising, single point].

Consider `Cc1c(O)nc(SCC(=O)Nc2ccc3c4c(cccc24)CC3)n(-c2ccccc2)c1=O`, for which the AC50 under setting [1] was 18.4 µM [falling, partial curve].

Regarding `CCN(CC)CCNC(=O)c1cc([N+](=O)[O-])c(N(C)C)cc1OC`, under setting [1], the AC50 is 14.1 µM [rising, partial curve, poor fit].

Take `COc1ccccc1CCC(=O)Nc1nc2ccccc2[nH]1`: the AC50 under setting [1] was 2.31 µM [falling, full curve].
